Experimental data as given in US4621135A, “Novel THF compositions” (Yeda Research & Development Company, Ltd., priority 1985, dated 1986).
At least one peptide structure holds a part that was inferred or is arguable (an end, a ring closure or a residue). Where a SMILES comes first, the peptide text is derived from it.

Tests used:
[1] = tested on: MLC (thymus), MLC (spleen), PHA and ConA; experiment: in vitro MLC, PHA and ConA bioassays; format: cell-based; conditions: synthetic peptide
[2] = tested on: neonatally thymectomized mice; experiment: in vivo bioassays, restoring impaired immunological functions; conditions: for restoring impaired immunological functions: neonatally thymectomized mice; for range in which biologically active in the in vivo bioassays: synthetic peptide

Row | SMILES | range in which biologically active in the in vitro bioassays [1] | restoring impaired immunological functions [2] | range in which biologically active in the in vivo bioassays [2]
1 | CC(C)C[C@H](NC(=O)[C@H](CC(=O)O)NC(=O)[C@@H]1CCCN1C(=O)[C@H](CC(C)C)NC(=O)[C@@H]1CCCN1C(=O)[C@@H](N)Cc1c[nH]cn1)C(=O)N[C@@H](Cc1ccc(O)cc1)C(=O)O [synthetic THF gamma 4, His-Pro-Leu-Pro-Asp-Leu-Tyr] (H-HPLPDLY-OH) | 5-80 ng/ml | – | –
2 | CC(C)C[C@H](NC(=O)[C@@H](NC(=O)[C@@H](N)Cc1ccccc1)C(C)C)C(=O)O [synthetic THF gamma 5, Phe-Val-Leu] (H-Phe-Val-Leu-OH) | 50-250 ng/ml | restoring impaired immunological functions | 20-1000 ng/kg body weight
3 | CC(C)C[C@H](NC(=O)[C@H](Cc1ccccc1)NC(=O)[C@H](CCCCN)NC(=O)[C@@H]1CCCN1C(=O)CNC(=O)[C@H](CC(=O)O)NC(=O)[C@H](CCC(=O)O)NC(=O)[C@@H](N)CC(C)C)C(=O)O [synthetic THF gamma 2, Leu-Glu-Asp-Gly-Pro-Lys-Phe-Leu] (H-LEDGPKFL-OH) | 0.5-50 ng/ml | restoring impaired immunological functions | 1-80 ng/kg body weight
